PubChem BioAssay AID504444 (National Center for Advancing Translational Sciences (NCATS), 2011)
Screen size: about 360,000 compounds; about 7,500 (2.1%) were called active. The inconclusive results got no clear call from the source; some entries with a clear call stand among them for comparison. The call rests on the fitted dose curve; in most records, active means well fitted inhibition curve with a large enough effect; inconclusive means small, poorly fitted or top-dose-only effect, or effect the other way; inactive means flat fitted curve, though single readings scatter. Potencies beside an inconclusive call are fits to weak or partial responses and may not hold up.

Experiment: Nrf2 qHTS screen for inhibitors; further: nearly all actives have a fitted effect of over 60% in size
Conditions: A549 ARE-Fluc reporter, luciferase luminescence, 18-24 h; activity change, negative = inhibition: at 46 µM (top of the series)
How it was run: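 A549 ARE_Fluc cells (5000/well, 5% FBS OPTI-MEM) pre-incubated 2 h, then treated with compounds 18-24 h at 37C/5% CO2 in concentration-response. CellTiter-Fluor viability read first; BugLite luciferase luminescence after 15 min at room temperature gives Nrf2 activity.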
On the % scale 0 is the no-effect control and ±100 the full control effect; potency means the concentration at half of the fitted maximal effect.

Row | SMILES | Potency | activity change, negative = inhibition
1 | O=S(=O)(c1ccc(Cl)cc1)N1CCOCC1 | inconclusive: 14.6 µM [activator, partial curve, poor fit] | –
2 | CC12CCC(C/C1=N/O)C2(C)C (configuration not stated) | – | inactive: 0%
3 | CCc1nc(NCCN2CCOCC2)c(C#N)c2c1CCCC2 | inconclusive: 23.1 µM [falling, single point] | –
4 | CCC(C)NC(=O)CSc1nnc(-c2cc(-c3cccs3)nc3ccccc23)o1 (configuration not stated) | inconclusive: 14.6 µM [falling, partial curve, poor fit] | –
5 | CCN(CC)S(=O)(=O)c1cccc(NC(=O)CSc2nnc(N)s2)c1 | inconclusive: 25.9 µM [falling, single point] | –
6 | CN(CC(=O)Nc1ccc(F)cc1)C(=O)C1CCN(S(=O)(=O)c2ccc3c(c2)OCCO3)CC1 | inconclusive: 25.9 µM [falling, partial curve] | –
7 | CC(C)OC(=O)CC(=O)CSc1nc2c(cc1C#N)CCCCC2 | inconclusive: 5.8 µM [activator, full curve, poor fit] | –
8 | CN(CCOc1ccc(Br)cc1)C(=O)CNC(=O)c1ccc2ccccc2c1 | inconclusive: 18.4 µM [falling, single point] | –
9 | COc1ccc(C(=O)/C(=C/N(C)C)S(=O)(=O)c2ccccc2)cc1 | inconclusive: 18.4 µM [activator, single point] | –
10 | COc1ccccc1N1CCN(C(=O)C2CCN(S(=O)(=O)c3ccc4c(c3)CC(C)N4C(C)=O)CC2)CC1 (configuration not stated) | – | inactive: -18.1%
11 | O=C(/C=C/c1cccs1)NC1CCCC1 | inconclusive: 18.4 µM [activator, partial curve] | –
12 | CCOC(=O)c1c(N)sc(C(=O)OC)c1C | inconclusive: 0.0651 µM [falling, full curve, poor fit] | –
13 | Cc1ccc2cc3cc(C(=O)N4CCCCCC4)oc3nc2c1 | inconclusive: 1.46 µM [activator, full curve] | –
14 | COc1ccc(C2=Nn3c(nnc3-c3ccccc3O)SC2)cc1OC | – | inactive: 0.308%
15 | Cc1ccc(C)c(-c2csc(NC(=O)C3=COCCO3)n2)c1 | inconclusive: 29.1 µM [falling, partial curve, poor fit] | –
16 | Cc1c(Cl)cccc1Nc1nc(N)nc(CSCCO)n1 | – | inactive: -3.5%
17 | CCOc1ccc(OCCNC(=O)c2oc3ccccc3c2COC)cc1 | inconclusive: 18.4 µM [falling, partial curve, poor fit] | –
18 | C/C(=N\Nc1ccc(Cl)c(C(=O)O)c1)c1ccc(N2CCOCC2)cc1 | inconclusive: 3.26 µM [activator, single point] | –
19 | COc1ccc(C(=O)/C=C/C(=O)N(CC(=O)NCCC(C)C)Cc2cccs2)c(O)c1 | – | inactive: 2.27%
20 | CCC(C)n1c(=O)c2sccc2n2c(CCCC(=O)NCc3ccccc3Cl)nnc12 (configuration not stated) | – | inactive: 0.85%
21 | Cn1c(=O)c2c(nc(Br)n2Cc2ccc3ccccc3c2)n(C)c1=O | inconclusive: 29.1 µM [falling, single point] | –

Row | SMILES | Potency | activity change, negative = inhibition
22 | COc1ccccc1NC(=O)Nc1nnc(C(C)c2ccccc2)s1 (configuration not stated) | inconclusive: 16.4 µM [activator, single point] | –
23 | CC(=O)c1cccc(NC(=S)NC(=O)c2ccccc2)c1 | inconclusive: 8.2 µM [activator, partial curve] | –
24 | Cc1c(NS(=O)(=O)c2cccc(C(=O)NCc3ccco3)c2)c(=O)n(-c2ccccc2)n1C | – | inactive: -11.5%
25 | CCOC(=O)c1cccc(NC(=O)Cn2c(=O)c3cccn3c3ccccc32)c1 | active: 11.6 µM | –
26 | COc1ccccc1CNn1c(-c2cccc(C)c2)nc2ccccc2c1=O | inconclusive: 29.1 µM [falling, single point] | –
27 | Cc1c(NC(=O)c2cccc(NC(=O)Cc3c(F)cccc3Cl)c2)c(=O)n(-c2ccccc2)n1C | inconclusive: 10.3 µM [falling, partial curve, poor fit] | –
28 | O=C(COC(=O)c1cccnc1Cl)c1ccc(F)cc1 | inconclusive: 29.1 µM [activator, single point] | –
29 | COc1ccc(C2(c3ccc(OC)cc3)NC(=O)N(CC(=O)Nc3cc(C)ccc3OC)C2=O)cc1 | inconclusive: 20.6 µM [falling, single point] | –
30 | Cc1ccc2c(c1)nnn2C1CCN(S(=O)(=O)c2ccc(C(=O)N(C)C)cc2)CC1 | inconclusive: 9.2 µM [falling, partial curve, poor fit] | –
31 | Cc1nc(C(F)(F)F)c(C(=O)N/N=C(\N)c2ccccn2)s1 | inconclusive: 10.3 µM [falling, partial curve] | –
32 | COc1ccc(N(C)S(=O)(=O)c2cccc(C(=O)Nc3nnc(C4CC4)s3)c2)cc1 | inconclusive: 16.4 µM [falling, single point] | –
33 | CCn1c(SCC(=O)NC(C)C(C)C)nc2cc(S(=O)(=O)N3CCOCC3)ccc21 (configuration not stated) | inconclusive: 1.64 µM [falling, partial curve, poor fit] | –
34 | CSc1ncc(Cl)c(C(=O)Nc2cccc(Cl)c2)n1 | inconclusive: 18.4 µM [falling, single point] | –
35 | COc1ccc(OCC(O)CN2CCCCCC2)cc1 (configuration not stated) | – | inactive: 2.86%
36 | Clc1cccc(Cl)c1CO/N=C/c1cccs1 | inconclusive: 3.26 µM [falling, partial curve, poor fit] | –
37 | COc1ccc(OC)c(-c2cc(C3CCN(c4ncccc4[N+](=O)[O-])CC3)[nH]n2)c1 | inconclusive: 23.1 µM [falling, single point] | –
38 | CCN1/C(=C/c2ccc3cc(C)ccc3[n+]2CC)Sc2ccc3sccc3c21 | active: 6.51 µM | –
39 | Cc1nc2c(-c3ccccc3)c(C)nn2c(C)c1CCC(=O)NC(C)CCc1ccco1 (configuration not stated) | inconclusive: 18.4 µM [falling, partial curve, poor fit] | –
40 | O=C(/C=C/Nc1ccccc1)c1ccc(Cl)cc1Cl | inconclusive: 9.2 µM [activator, partial curve] | –
41 | COc1cc(C(=O)NC(C)CCc2ccccc2)cc(OC)c1OC (configuration not stated) | inconclusive: 16.4 µM [falling, single point] | –
42 | CCc1nc2ccccc2nc1N1CCN(S(=O)(=O)c2ccc(Cl)cc2)CC1 | inconclusive: 10.3 µM [activator, partial curve, poor fit] | –

Among those listed so far, these have fluorine:
Row | SMILES | Potency | activity change, negative = inhibition
6 | CN(CC(=O)Nc1ccc(F)cc1)C(=O)C1CCN(S(=O)(=O)c2ccc3c(c2)OCCO3)CC1 | inconclusive: 25.9 µM [falling, partial curve] | –
27 | Cc1c(NC(=O)c2cccc(NC(=O)Cc3c(F)cccc3Cl)c2)c(=O)n(-c2ccccc2)n1C | inconclusive: 10.3 µM [falling, partial curve, poor fit] | –
28 | O=C(COC(=O)c1cccnc1Cl)c1ccc(F)cc1 | inconclusive: 29.1 µM [activator, single point] | –
31 | Cc1nc(C(F)(F)F)c(C(=O)N/N=C(\N)c2ccccn2)s1 | inconclusive: 10.3 µM [falling, partial curve] | –
